# ± gives the standard deviation of the averaged measurements. Most values lie within the scatter of the assay; repeated measurements hardly agree.
# Sequences of proteins named here, by UniProt entry; tags and fusion partners are left off. A change or cut given only in a name is not applied to a line headed by its entry.
# UniProt Q99698: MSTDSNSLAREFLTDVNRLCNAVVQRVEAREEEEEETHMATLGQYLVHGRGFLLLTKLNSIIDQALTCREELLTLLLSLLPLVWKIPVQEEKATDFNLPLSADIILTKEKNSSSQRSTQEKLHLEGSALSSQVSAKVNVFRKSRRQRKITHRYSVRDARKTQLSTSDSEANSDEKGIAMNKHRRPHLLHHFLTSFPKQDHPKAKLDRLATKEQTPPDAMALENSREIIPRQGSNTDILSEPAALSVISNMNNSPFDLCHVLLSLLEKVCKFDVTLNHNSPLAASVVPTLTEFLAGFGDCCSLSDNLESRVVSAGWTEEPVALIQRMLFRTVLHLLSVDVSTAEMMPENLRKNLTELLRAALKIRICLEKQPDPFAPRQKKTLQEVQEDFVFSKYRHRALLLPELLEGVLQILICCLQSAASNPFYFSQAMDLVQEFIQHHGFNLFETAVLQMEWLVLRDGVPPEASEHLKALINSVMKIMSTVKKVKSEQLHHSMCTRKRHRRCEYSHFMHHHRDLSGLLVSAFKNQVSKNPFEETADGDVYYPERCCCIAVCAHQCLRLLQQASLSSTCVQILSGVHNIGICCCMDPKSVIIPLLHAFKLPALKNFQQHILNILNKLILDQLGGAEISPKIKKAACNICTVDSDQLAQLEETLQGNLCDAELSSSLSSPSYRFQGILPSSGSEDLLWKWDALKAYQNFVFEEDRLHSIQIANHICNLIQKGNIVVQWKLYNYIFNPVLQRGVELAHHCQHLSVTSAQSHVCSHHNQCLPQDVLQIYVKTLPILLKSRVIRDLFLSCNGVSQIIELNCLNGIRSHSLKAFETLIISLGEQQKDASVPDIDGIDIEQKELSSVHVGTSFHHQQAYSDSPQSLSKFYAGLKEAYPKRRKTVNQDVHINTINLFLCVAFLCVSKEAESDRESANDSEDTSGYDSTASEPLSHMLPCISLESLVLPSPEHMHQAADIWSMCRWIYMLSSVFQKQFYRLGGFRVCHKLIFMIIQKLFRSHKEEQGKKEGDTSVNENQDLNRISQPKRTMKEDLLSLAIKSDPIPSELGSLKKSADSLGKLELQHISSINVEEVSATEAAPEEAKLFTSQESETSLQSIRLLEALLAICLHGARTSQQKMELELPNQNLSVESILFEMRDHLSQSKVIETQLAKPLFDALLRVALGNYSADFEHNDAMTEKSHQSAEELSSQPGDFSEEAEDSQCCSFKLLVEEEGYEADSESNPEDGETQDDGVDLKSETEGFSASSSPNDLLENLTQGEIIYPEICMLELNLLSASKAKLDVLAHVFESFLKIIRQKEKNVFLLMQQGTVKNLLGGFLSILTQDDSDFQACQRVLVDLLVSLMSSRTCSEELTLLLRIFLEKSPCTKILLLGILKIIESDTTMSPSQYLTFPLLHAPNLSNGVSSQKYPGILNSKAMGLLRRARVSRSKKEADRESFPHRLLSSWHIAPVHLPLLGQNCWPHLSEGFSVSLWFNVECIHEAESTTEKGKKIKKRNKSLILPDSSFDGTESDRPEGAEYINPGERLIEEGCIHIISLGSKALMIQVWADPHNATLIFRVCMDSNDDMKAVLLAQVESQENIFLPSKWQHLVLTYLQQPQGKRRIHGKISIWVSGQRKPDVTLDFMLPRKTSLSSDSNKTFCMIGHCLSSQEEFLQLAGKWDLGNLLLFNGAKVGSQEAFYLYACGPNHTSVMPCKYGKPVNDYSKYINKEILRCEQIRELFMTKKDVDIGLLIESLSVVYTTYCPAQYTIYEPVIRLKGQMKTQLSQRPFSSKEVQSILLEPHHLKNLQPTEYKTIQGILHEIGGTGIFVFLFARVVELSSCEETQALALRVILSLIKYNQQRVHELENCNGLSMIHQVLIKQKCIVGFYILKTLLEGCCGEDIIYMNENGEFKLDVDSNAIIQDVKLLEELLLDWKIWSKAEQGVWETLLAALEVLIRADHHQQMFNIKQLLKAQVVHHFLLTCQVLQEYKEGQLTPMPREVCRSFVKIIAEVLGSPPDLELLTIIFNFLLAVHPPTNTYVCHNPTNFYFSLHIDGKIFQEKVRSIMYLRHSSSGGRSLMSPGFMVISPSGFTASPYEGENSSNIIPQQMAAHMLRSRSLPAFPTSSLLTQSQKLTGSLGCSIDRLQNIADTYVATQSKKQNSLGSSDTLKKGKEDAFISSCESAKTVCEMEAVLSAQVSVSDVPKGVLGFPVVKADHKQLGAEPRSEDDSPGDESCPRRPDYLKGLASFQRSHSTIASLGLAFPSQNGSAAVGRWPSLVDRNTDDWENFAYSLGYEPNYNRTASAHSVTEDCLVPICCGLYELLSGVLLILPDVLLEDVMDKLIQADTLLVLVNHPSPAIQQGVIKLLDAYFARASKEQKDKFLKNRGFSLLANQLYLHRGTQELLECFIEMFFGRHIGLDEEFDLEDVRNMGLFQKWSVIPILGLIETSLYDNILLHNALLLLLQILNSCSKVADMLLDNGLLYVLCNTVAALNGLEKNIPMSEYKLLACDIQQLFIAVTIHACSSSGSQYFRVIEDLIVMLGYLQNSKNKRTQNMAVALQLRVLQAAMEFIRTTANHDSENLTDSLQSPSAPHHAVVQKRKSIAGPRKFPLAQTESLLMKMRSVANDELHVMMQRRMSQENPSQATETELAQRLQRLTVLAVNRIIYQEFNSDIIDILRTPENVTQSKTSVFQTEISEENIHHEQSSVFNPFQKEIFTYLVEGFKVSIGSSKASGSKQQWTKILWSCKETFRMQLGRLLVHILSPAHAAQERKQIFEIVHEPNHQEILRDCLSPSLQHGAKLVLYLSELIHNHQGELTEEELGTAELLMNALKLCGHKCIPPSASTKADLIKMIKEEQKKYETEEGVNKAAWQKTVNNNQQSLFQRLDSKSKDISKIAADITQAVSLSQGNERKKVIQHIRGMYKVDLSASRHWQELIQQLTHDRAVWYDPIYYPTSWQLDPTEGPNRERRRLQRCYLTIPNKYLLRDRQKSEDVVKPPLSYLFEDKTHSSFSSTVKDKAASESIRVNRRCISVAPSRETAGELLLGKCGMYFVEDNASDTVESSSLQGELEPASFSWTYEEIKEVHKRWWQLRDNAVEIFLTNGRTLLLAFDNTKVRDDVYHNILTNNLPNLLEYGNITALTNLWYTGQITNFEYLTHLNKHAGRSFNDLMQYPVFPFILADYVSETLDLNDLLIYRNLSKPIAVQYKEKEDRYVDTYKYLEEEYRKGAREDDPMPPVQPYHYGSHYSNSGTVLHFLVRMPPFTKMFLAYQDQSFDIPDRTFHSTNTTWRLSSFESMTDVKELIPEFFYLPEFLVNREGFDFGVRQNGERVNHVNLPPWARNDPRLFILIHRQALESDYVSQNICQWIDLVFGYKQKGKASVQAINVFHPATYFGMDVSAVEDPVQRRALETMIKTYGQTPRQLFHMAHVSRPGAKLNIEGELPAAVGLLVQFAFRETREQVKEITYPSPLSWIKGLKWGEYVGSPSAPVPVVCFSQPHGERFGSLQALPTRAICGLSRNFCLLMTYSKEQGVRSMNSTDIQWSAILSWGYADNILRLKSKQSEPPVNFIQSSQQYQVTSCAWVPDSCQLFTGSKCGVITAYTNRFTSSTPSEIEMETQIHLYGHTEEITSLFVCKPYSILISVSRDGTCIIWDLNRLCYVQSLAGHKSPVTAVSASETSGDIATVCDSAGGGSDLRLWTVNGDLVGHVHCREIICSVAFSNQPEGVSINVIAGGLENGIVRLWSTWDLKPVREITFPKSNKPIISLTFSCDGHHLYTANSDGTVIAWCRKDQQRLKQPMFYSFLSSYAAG
# UniProt P43487, whole entry, looked up: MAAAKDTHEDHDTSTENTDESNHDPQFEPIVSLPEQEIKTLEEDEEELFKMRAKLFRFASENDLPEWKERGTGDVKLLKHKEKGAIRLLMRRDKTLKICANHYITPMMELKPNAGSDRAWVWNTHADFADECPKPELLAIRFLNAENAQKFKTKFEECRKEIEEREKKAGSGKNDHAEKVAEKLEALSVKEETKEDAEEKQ
# UniProt P0C1Z6, whole entry: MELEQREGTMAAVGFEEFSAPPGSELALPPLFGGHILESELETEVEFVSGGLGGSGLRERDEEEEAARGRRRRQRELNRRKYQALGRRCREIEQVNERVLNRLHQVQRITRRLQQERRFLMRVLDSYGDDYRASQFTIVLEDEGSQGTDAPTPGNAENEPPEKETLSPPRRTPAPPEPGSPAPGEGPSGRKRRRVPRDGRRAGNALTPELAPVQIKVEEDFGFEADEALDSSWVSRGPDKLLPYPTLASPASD
# UniProt Q6NZI2: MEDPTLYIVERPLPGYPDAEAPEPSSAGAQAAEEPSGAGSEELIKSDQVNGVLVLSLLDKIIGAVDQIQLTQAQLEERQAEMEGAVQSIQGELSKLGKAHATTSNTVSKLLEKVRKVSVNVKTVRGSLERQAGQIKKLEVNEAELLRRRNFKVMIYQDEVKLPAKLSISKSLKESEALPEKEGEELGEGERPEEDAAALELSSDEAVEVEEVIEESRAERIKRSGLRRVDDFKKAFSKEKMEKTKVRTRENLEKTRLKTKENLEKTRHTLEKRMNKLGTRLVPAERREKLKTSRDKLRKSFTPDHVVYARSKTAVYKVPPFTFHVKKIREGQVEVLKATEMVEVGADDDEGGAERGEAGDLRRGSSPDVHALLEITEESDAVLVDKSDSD
# UniProt P30086: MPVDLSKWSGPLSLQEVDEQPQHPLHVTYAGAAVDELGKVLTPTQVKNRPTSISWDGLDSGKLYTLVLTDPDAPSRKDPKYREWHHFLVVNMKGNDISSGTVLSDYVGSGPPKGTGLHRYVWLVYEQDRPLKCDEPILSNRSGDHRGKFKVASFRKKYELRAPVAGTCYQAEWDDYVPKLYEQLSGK
# UniProt Q15742: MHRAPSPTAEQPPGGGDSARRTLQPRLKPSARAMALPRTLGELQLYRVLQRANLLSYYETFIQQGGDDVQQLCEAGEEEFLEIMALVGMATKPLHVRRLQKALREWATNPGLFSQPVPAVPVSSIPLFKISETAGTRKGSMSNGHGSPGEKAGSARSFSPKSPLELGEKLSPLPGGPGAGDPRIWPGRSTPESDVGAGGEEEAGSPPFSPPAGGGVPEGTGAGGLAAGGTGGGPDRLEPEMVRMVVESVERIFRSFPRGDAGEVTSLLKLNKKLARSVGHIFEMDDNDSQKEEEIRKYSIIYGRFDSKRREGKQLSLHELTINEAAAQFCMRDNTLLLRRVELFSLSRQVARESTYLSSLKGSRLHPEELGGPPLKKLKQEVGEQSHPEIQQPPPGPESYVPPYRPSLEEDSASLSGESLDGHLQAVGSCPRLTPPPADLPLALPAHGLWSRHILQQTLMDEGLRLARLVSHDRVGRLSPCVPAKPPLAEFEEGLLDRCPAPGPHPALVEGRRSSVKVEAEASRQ
# UniProt O94804: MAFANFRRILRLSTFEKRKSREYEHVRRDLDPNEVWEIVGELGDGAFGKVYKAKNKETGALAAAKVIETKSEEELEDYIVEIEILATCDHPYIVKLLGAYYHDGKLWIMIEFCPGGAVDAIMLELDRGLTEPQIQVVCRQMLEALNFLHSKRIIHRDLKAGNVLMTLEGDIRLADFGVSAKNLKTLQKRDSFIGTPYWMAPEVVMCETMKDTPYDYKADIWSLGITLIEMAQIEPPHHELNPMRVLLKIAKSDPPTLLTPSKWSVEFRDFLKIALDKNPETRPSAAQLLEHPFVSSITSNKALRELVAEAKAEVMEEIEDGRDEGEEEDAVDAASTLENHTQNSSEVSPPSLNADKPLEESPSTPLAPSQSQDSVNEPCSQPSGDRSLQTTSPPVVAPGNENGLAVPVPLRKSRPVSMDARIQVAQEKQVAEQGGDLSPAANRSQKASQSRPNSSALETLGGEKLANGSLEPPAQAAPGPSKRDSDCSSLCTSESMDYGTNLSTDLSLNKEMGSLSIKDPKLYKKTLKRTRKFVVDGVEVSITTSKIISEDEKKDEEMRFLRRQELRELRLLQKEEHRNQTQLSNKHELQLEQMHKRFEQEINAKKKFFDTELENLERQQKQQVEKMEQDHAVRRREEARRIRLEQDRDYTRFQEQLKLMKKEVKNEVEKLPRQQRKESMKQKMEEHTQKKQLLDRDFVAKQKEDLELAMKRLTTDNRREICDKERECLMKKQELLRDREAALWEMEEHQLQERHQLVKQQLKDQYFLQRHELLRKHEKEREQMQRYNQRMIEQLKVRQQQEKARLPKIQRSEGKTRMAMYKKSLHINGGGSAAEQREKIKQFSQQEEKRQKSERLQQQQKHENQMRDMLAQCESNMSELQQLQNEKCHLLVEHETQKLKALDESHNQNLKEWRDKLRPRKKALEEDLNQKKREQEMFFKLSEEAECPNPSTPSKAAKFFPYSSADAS
# Compound: CC[C@@H](C)Nc1cc(C(=O)N[C@H]2C[C@H]3CC[C@@H](C2)N3c2ccc(C(=O)C3CC3)cn2)c(C)cc1C(N)=O [XL888]
# Assay: phosphopeptide melting temperature shift (XL888 minus DMSO); higher = stabilised by drug treatment
# Conditions: 100 µM; treatment time 2 h; layout: intact cells; SK-Mel 28
# Experimental: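 Phospho-TPP in intact SK-Mel 28 cells treated with 100 uM XL888 or DMSO for 2 h, heated at 10 temperatures (37-67 C) for 3 min, soluble fraction TMT10plex-labelled and TiO2 phospho-enriched. Melting curves were fitted per phosphopeptide; the value is the melting point difference (drug minus vehicle) in each of two biological replicates.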
row,Target,phosphopeptide melting temperature shift
1,UniProt O75494-2_phosphosite_155 (phosphosite position: 155),6.38 °C
2,LYST phosphosite_2213 (phosphosite position: 2213) (UniProt Q99698),0.487 °C
3,UniProt P78559_phosphosite_526 (phosphosite position: 526),-0.116 ± 0.22 °C
4,UniProt P43487-2_phosphosite_13 (phosphosite position: 13),3.59 ± 1.8 °C
5,SF3B2 phosphosite_436 (phosphosite position: 436) (UniProt Q13435),4.51 °C
6,ARHGEF11 phosphosite_668 (phosphosite position: 668) (UniProt O15085),1.36 ± 0.23 °C
7,UniProt Q0JRZ9-3_phosphosite_455 (phosphosite position: 455),2.01 °C
8,TFPT phosphosite_252 (phosphosite position: 252) (UniProt P0C1Z6),3.25 ± 0.65 °C
9,UniProt Q8NFC6_phosphosite_2779 (phosphosite position: 2779),2.04 °C
10,UniProt Q6NZI2_phosphosite_376 (phosphosite position: 376),2.34 °C
11,UniProt Q5T4S7-3_phosphosite_2729 (phosphosite position: 2729),0.521 °C
12,LYST phosphosite_2124 (phosphosite position: 2124) (UniProt Q99698),0.868 ± 0.36 °C
13,MPRIP phosphosite_993 (phosphosite position: 993) (UniProt Q6WCQ1),1.65 °C
14,STRAP phosphosite_335 (phosphosite position: 335) (UniProt Q9Y3F4),0.646 ± 0.2 °C
15,PXN phosphosite_85 (phosphosite position: 85) (UniProt P49023),4.18 ± 1.3 °C
16,AKT1S1 phosphosite_88 (phosphosite position: 88) (UniProt Q96B36),-2.52 °C
17,UniProt Q5T0N5-3_phosphosite_443 (phosphosite position: 443),0.767 °C
18,UniProt Q9NRA8-2_phosphosite_78 (phosphosite position: 78),-0.178 ± 0.97 °C
19,UniProt O75592-2_phosphosite_2645 (phosphosite position: 2645),1.96 ± 0.55 °C
20,SLC9A3R1 phosphosite_269 (phosphosite position: 269) (UniProt O14745),3.47 °C
21,UniProt Q8N163-2_phosphosite_681 (phosphosite position: 681),0.455 °C
22,MATR3 phosphosite_188 (phosphosite position: 188) (UniProt P43243),-5.67 °C
23,PEBP1 phosphosite_52 (phosphosite position: 52) (UniProt P30086),2.1 °C
24,NAB2 phosphosite_162 (phosphosite position: 162) (UniProt Q15742),2.03 °C
25,UniProt O75382-3_phosphosite_348 (phosphosite position: 348),0.514 °C
26,UniProt Q9NPE2-3_phosphosite_41 (phosphosite position: 41),-2.23 °C
27,UniProt P17612_phosphosite_339 (phosphosite position: 339),0.327 ± 0.12 °C
28,UniProt O94804_phosphosite_514 (phosphosite position: 514),1.32 ± 0.94 °C

# Single entries from above.
# phosphopeptide melting temperature shift, UniProt O94804_phosphosite_514 (phosphosite position: 514) reads 1.32 ± 0.94 °C
# phosphopeptide melting temperature shift, LYST phosphosite_2124 (phosphosite position: 2124) (UniProt Q99698) reads 0.868 ± 0.36 °C

# From the supplement of paper PMC5836539
